Our source for the binding values is patent publication US20200062817A1.

Protein sequences, listed by entry. Tags and fused reporters are not part of them. Lines headed by an entry give the natural chain unless they say otherwise; changes in a name come on top.
UniProt G3I8R9: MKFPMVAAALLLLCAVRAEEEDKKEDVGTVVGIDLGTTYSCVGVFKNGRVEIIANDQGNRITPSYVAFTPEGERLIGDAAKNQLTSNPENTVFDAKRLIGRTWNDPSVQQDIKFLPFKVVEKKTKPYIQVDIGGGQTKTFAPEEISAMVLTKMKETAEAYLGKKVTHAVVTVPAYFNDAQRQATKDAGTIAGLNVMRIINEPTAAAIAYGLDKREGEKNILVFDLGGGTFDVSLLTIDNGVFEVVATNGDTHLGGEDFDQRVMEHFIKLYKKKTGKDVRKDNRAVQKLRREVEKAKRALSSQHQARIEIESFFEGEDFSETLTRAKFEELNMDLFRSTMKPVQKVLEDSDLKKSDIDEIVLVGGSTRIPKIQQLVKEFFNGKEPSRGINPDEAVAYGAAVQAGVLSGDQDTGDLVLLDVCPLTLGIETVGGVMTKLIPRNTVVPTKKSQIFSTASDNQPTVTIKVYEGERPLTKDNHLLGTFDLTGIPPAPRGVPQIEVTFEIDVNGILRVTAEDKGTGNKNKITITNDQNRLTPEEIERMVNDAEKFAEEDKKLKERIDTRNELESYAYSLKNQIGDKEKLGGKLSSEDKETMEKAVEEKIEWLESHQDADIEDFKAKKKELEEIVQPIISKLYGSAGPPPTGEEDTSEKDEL

Numbering of substitutions follows the chain as printed. No constants are given. Whether binding was seen depends on the method and setting. In cells and extracts the contact can be indirect. Some results given as binding are weak or reduced against the parent protein; the word gives no strength. Sequences can lack the tags named with a protein.

The target of assay [1] is T1, hIL-27α^L162C, with C-terminal (GS)4-linker and V5 tag (human) (UniProt Q8NEV9).
T1 sequence: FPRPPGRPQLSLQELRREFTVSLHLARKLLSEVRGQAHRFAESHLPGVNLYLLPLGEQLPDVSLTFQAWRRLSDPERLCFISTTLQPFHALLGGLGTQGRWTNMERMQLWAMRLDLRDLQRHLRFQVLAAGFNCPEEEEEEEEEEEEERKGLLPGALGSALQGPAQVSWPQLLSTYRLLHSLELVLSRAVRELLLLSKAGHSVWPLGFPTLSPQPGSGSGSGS
As to the kind of experiment: co-immunoprecipitation with anti-V5 from 293T lysate, immunoblot against BiP. In general terms: Immunoblotting shows a protein as a band on a membrane.

In assay [2] the target is T2, human IL-27 alpha-subunit (hIL-27α), wild type, with C-terminal (GS)4-linker and V5 tag (human) (UniProt Q8NEV9).
T2 sequence: T1 sequence with C134L
The description is as above.

As to “hamster BiP (immunoglobulin heavy-chain binding protein) (from UniProt G3I8R9 19-654)”, the binding result in assay [1] and in assay [2] was “binds” throughout.
